# Test results taken from the supplement of paper PMC6331611.
# ± gives the standard deviation of the averaged measurements. The full ranking holds about 1,600 compounds; the median of “normalized intracellular growth (luminescence, IQM-normalized) in RAW264.7 macrophages” is about 1, and the lowest 2% start at about 0.43. The list shows a part of the results.
# Tested on: Salmonella enterica serovar Typhimurium SL1344
# Assay: normalized intracellular growth (luminescence, IQM-normalized) in RAW264.7 macrophages (fraction of plate interquartile mean); higher = more bacterial growth (less inhibition)
# Conditions: 10 µM
SMILES,normalized intracellular growth (time point: T3 (3 h)),normalized intracellular growth (time point: Tfinal (~6 h))
CC1(C)O[C@@H]2C[C@H]3[C@@H]4CCC5=CC(=O)C=C[C@]5(C)[C@@]4(F)[C@@H](O)C[C@]3(C)[C@]2(C(=O)CO)O1,0.848 ± 0.021,1.33 ± 0.069
OC1(c2ccc(Cl)c(C(F)(F)F)c2)CCN(CCCC(c2ccc(F)cc2)c2ccc(F)cc2)CC1,0.949 ± 0.056,1.12 ± 0.18
C[C@@H]1C[C@H]2[C@@H]3CCC4=CC(=O)C=C[C@]4(C)[C@@]3(F)[C@@H](O)C[C@]2(C)[C@@]1(O)C(=O)CO,1 ± 0.062,0.99 ± 0.075
O=C(O)COC(=O)Cc1ccccc1Nc1c(Cl)cccc1Cl,1.13 ± 0.02,0.853 ± 0.024
CCn1nc(C(=O)O)c(=O)c2cc3c(cc21)OCO3,0.833 ± 0.03,0.705 ± 0.046
Cc1cc(/C=C/c2ccc3cc(N(C)C)ccc3[n+]2C)c(C)n1-c1ccccc1,1.05 ± 0.03,1.07 ± 0.044
CC(C)(Oc1ccc(C(=O)c2ccc(Cl)cc2)cc1)C(=O)O,0.98 ± 0.0072,1.07 ± 0.11
CCCCNc1ccc(C(=O)OCCOCCOCCOCCOCCOCCOCCOCCOCCOC)cc1,0.91 ± 0.039,0.9637 ± 0.006
CCN1CCN(C(=O)N[C@@H](C(=O)N[C@@H]2C(=O)N3C(C(=O)O)=C(CSc4nnnn4C)CS[C@H]23)c2ccc(O)cc2)C(=O)C1=O,0.9924 ± 0.0029,1.08 ± 0.021
CN(C)CCOc1ccc(/C(=C(/CCCl)c2ccccc2)c2ccccc2)cc1,0.921 ± 0.0094,0.791 ± 0.13
Cc1ccc(Cl)c(Nc2ccccc2C(=O)O)c1Cl,0.756 ± 0.089,0.786 ± 0.19
CC1=Nc2ccc(Cl)cc2S(=O)(=O)N1,1.02 ± 0.014,0.976 ± 0.041
CC(C(=O)O)c1ccc(N2Cc3ccccc3C2=O)cc1 (stereo not given),1.02 ± 0.02,0.95 ± 0.024
Oc1ccc(OCc2ccccc2)cc1,1.17 ± 0.058,0.8 ± 0.3
C[C@H]1C[C@H]2[C@@H]3CCC4=CC(=O)C=C[C@]4(C)[C@@]3(F)[C@@H](O)C[C@]2(C)[C@@]1(O)C(=O)CO,1.05 ± 0.022,1.04 ± 0.079
CC(=O)OC1CC2CCC1(C)C2(C)C (stereo not given),1.011 ± 0.01,1.14 ± 0.018
O=c1cc[nH]c(=S)[nH]1,1.03 ± 0.029,1.14 ± 0.035
O=C1CC2(CCCC2)CC(=O)N1CCCCN1CCN(c2ncccn2)CC1,1 ± 0.081,0.987 ± 0.24
CC[C@H]1OC(=O)[C@H](C)[C@@H](O[C@H]2C[C@@](C)(OC)[C@@H](O)[C@H](C)O2)[C@H](C)[C@@H](O[C@@H]2O[C@H](C)C[C@H](N(C)C)[C@H]2O)[C@](C)(O)C[C@@H](C)[C@@H]2N[C@@H](COCCOC)O[C@H]([C@H]2C)[C@]1(C)O,1.04 ± 0.1,1 ± 0.14
CCCCCCCCCCCCCCCC(=O)O[C@@H]1[C@@H](O)[C@@H](O)[C@@H]([C@H](NC(=O)[C@@H]2C[C@@H](CCC)CN2C)[C@H](C)Cl)O[C@@H]1SC,1.035 ± 0.0086,0.763 ± 0.16

# Individual results from the entries so far.
# In normalized intracellular growth (time point: T3 (3 h)), CC[C@H]1OC(=O)[C@H](C)[C@@H](O[C@H]2C[C@@](C)(OC)[C@@H](O)[C@H](C)O2)[C@H](C)[C@@H](O[C@@H]2O[C@H](C)C[C@H](N(C)C)[C@H]2O)[C@](C)(O)C[C@@H](C)[C@@H]2N[C@@H](COCCOC)O[C@H]([C@H]2C)[C@]1(C)O has the entry 1.04 ± 0.1
# In normalized intracellular growth (time point: Tfinal (~6 h)), CCN1CCN(C(=O)N[C@@H](C(=O)N[C@@H]2C(=O)N3C(C(=O)O)=C(CSc4nnnn4C)CS[C@H]23)c2ccc(O)cc2)C(=O)C1=O has the entry 1.08 ± 0.021
